Measurements reported in PubChem BioAssay AID1259331 (Drosophila RNAi Screening Center, 2017).

- Test: 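Fly transmembrane-protein genes that affect zinc toxicity in cultured cells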 (primary screen)
- Cells: Drosophila S2R+ cells
- Reagents: long dsRNA against Drosophila genes
- Time to read-out: 5 days (4 days knock-down, then 1 day zinc)
- Challenge: zinc chloride at 15 mM final level for 1 day
- Measured: 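Total cellular ATP measured by luciferase luminescence as a viability proxy, turned into Z scores from three plate copies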
- Scale: mean Z score: higher = more ATP than other wells, better survival under zinc; ATP luminescence: higher = more ATP, more viable cells
- Active means: 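a reagent is called a hit when its Z score is above 1.5 or below -1.5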
- Meaning of the calls: active = hit, ATP up or down; inactive = not a hit
Shown is an unselected part of about 3,100 reagents tested. 126 of them (4.1%) were called active. 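Calls are per reagent; zinc was so toxic that few knock-downs lowered ATP further, so most hits raise ATP.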 Raw values are not corrected between plates. The numbers tell different reagents against one gene apart. A plus sign joins genes that one reagent is predicted to hit. Not given: the amount of reagent.

gene	reagent	mean Z score	ATP luminescence, replicate 1	ATP luminescence, replicate 2	Outcome
jef	1	-0.0466	67221	75604	inactive
jef	2	0.046	61135	57905	inactive
CG4476	1	0.0679	72002	64885	inactive
CG4476	2	0.222	61438	68246	inactive
CG11438	1	0.149	71591	63221	inactive
CG11438	2	0.947	58969	55230	inactive
CG1907	1	-0.32	37450	43965	inactive
Gr93c	1	-0.125	40622	56173	inactive
CG30340	1	-0.187	41565	43348	inactive
Sys1 + Dhod	1	1.78	76119	71368	active
5-HT1A	1	0.167	70476	73443	inactive
5-HT1A	2	-0.347	59329	50583	inactive
SecCl	1	-0.0706	78499	62163	inactive
SecCl	2	-1.04	32807	47025	inactive
CG13794	1	-0.282	47189	40399	inactive
CG13794	2	-0.263	62856	47804	inactive
Efr	1	-0.755	52497	54593	inactive
Efr	2	0.262	63359	63359	inactive
CG32206	1	-0.117	77045	58728	inactive
CG32206	2	0.108	44720	43725	inactive
PXo	1	-0.306	28210	30782	inactive
Elo68alpha	1	-0.156	46143	39045	inactive
CG14160	1	-0.546	69790	53052	inactive

Reprinted from the listing (2 entries):
gene	reagent	mean Z score	ATP luminescence, replicate 1	ATP luminescence, replicate 2	Outcome
CG32206	1	-0.117	77045	58728	inactive
CG32206	2	0.108	44720	43725	inactive

Continued.
gene	reagent	mean Z score	ATP luminescence, replicate 1	ATP luminescence, replicate 2	Outcome
Gr59b	1	-0.416	48132	39816	inactive
ClC-c	1	-0.749	21097	28365	inactive
ClC-c	2	-0.256	50835	54493	inactive
Ir7c	1	-0.37	57117	62776	inactive
Ir7c	2	-0.811	48663	49315	inactive
CG31431	1	-0.129	39045	53738	inactive
CG31431	2	-0.196	61318	55059	inactive
Or22a	1	0.357	61215	61078	inactive
Tsp42A	1	0.339	1.02e5	78187	inactive
Tsp42A	2	-0.372	51252	55659	inactive
CG10337	1	-0.417	36696	56465	inactive
CG10337	2	0.613	71591	68246	inactive
na	1	1.28	87766	86822	inactive
na	2	-0.0293	49865	44617	inactive
VhaM9.7-d	1	0.417	54351	61061	inactive
Gr98c	1	0.216	68126	56465	inactive
Gr98c	2	-0.325	52984	59071	inactive
Ulp1	1	0.513	54333	52178	inactive
Ulp1	2	0.67	67886	64705	inactive
nAChRalpha5	1	0.396	55813	43674	inactive
Tsp42El	1	-0.348	40931	39148	inactive
PIG-M + CG42380 + CG42379 + 1 more	1	-0.313	35293	40896	inactive
PIG-M + CG42380 + CG42379 + 1 more	2	-0.654	25828	27353	inactive
